Data: PubChem BioAssay AID248 (DTP/NCI, 2004)
The list shows only some results of the screen, not a fair sample: it is rich in T/C values a quarter to a half above the control, in often repeated tests (any T/C) and in doses without a T/C. Other doses and runs of a compound stand elsewhere. T/C gives the treated animals as a percentage of the vehicle group. Some doses have a count of surviving animals in place of a T/C: the source holds a T/C of zero for them, seemingly a mark for toxic or unscored doses. Some doses without a T/C left all or most animals alive at the check, yet need not have been tolerated: the source hardly ever lists a survival T/C far under the control, and the zero likely stands for such cases as well. Survivors were counted at the toxicity check, usually on the fifth day, unless a day is given; later deaths do not show. Schedules are NCI's codes, read here as Q, the interval in days (D) or hours (H), X, the number of doses. Some schedule codes hold Z or #, which are not explained here. Some entries hold several experiments; their values stand side by side, smallest first. Where survival is the endpoint, this PubChem deposit counts one and a half times the control or more as active, and values a quarter to a half above the control carry no call in these data; other NCI protocols may use other cut-offs.

Tested on: L1210 leukemia ip in BDF1 mice, survival T/C
Assay: NCI In Vivo Anticancer Drug Screen. Data for tumor model L1210 Leukemia (intraperitoneal) in B6D2F1 (BDF1) mice
Conditions: T/C endpoint: mean survival time, higher T/C = longer survival
[1] = dose: 400.0 mg/kg/injection, schedule: Q01DX001 (ip), vehicle: saline
[2] = dose: 200.0 mg/kg/injection, schedule: Q04DX003 (ip), vehicle: saline
[3] = dose: 400.0 mg/kg/injection, schedule: Q01DX001 (ip), vehicle: carboxymethylcellulose (CMC)
[4] = dose: 400.0 mg/kg/injection, schedule: Q01DX009 (ip), vehicle: carboxymethylcellulose (CMC)
[5] = dose: 400.0 mg/kg/injection, schedule: Q04DX003 (ip), vehicle: saline
[6] = dose: 100.0 mg/kg/injection, schedule: Q04DX003 (ip), vehicle: saline
[7] = dose: 200.0 mg/kg/injection, schedule: Q01DX001 (ip), vehicle: carboxymethylcellulose (CMC)
[8] = dose: 15.0 mg/kg/injection, schedule: Q01DX Z (ip), vehicle: carboxymethylcellulose (CMC)

## O=C(CC(=O)C(F)(F)F)c1csc2ccccc12
dose: 100.0 mg/kg/injection, schedule: Q01DX009 (ip), vehicle: saline
  survivor count: 0 of 6
dose: 150.0 mg/kg/injection, schedule: Q04DX003 (ip), vehicle: acetone
  survivor count: 2 of 6
dose: 200.0 mg/kg/injection, schedule: Q01DX001 (ip), vehicle: saline
  survivor count: 1 of 6
dose: 225.0 mg/kg/injection, schedule: Q04DX003 (ip), vehicle: acetone
  survivor count: 4 of 6
dose: 335.0 mg/kg/injection, schedule: Q04DX003 (ip), vehicle: acetone
  survivor count: 0 of 6
[1]
  survivor count: 0 of 6

## Nc1ncnc2c1cnn2CCCl
[2]
  T/C: 125 % of control
dose: 300.0 mg/kg/injection, schedule: Q04DX003 (ip), vehicle: saline
  T/C: 128 % of control

## CCC1CN2CCc3cc(OC)c(OC)cc3C2CC1O (stereo unspecified)
dose: 400.0 mg/kg/injection, schedule: Q01DX009 (ip), vehicle: saline with Tween-80
  survivor count: 0 of 6

## C=CS(=O)(=O)CC
dose: 100.0 mg/kg/injection, schedule: Q04DX002 (ip), vehicle: saline
  survivor count: 1 of 3
dose: 200.0 mg/kg/injection, schedule: Q04DX002 (ip), vehicle: saline
  survivor count: 1 of 3
dose: 400.0 mg/kg/injection, schedule: Q04DX002 (ip), vehicle: saline
  survivor count: 1 of 3

## CCOC(=O)C(C(=O)OCC)C(C)(C)Cc1ccccc1
dose: 100.0 mg/kg/injection, schedule: Q04DX003 (ip), vehicle: Klucel (hydroxypropylcellulose) (HPC)
  survivor count: 0 of 6

## CCCCCNC(=O)CCCC
[3]
  survivor count: 3 of 6
[4]
  survivor count: 0 of 3 and 0 of 6

## NNC(=O)CCNCCC(=O)NN
dose: 400.0 mg/kg/injection, schedule: Q04DX002 (ip), vehicle: saline + alcohol
  survivor count: 3 of 3

## C=C(Br)CNC(=O)NCCCl
dose: 400.0 mg/kg/injection, schedule: Q01DX001 (ip), vehicle: Klucel (hydroxypropylcellulose) (HPC)
  survivor count: 0 of 6

## CC(=O)Nc1cccc(C[P+](c2ccccc2)(c2ccccc2)c2ccccc2)c1
[3]
  survivor count: 0 of 4

## S=C([S][Sn]([S]C(=S)N(c1ccccc1)c1ccccc1)([c]1ccccc1)[c]1ccccc1)N(c1ccccc1)c1ccccc1
dose: 400.0 mg/kg/injection, schedule: Q01DX001 (ip), vehicle: steroid suspending solution
  survivor count: 2 of 6

## C[CH2][Hg][S]c1nsc([S][Hg][CH2]C)n1
dose: 50.0 mg/kg/injection, schedule: Q01DX009 (ip), vehicle: Klucel (hydroxypropylcellulose) (HPC)
  survivor count: 0 of 6

## c1ccc(CN2CCC(N3CCCC3)CC2)cc1
[5]
  survivor count: 1 of 6

## O=C1CC(c2cccc(S(=O)(=O)O)c2)=NN1c1ccc([N+](=O)[O-])cn1
[6]
  survivor count: 1 of 6
[2]
  survivor count: 0 of 6
[5]
  survivor count: 0 of 6

## O=C(O)CN(CCN(CC(=O)O)CC(=O)O)CCN(CC(=O)O)CC(=O)O
[7]
  survivor count: 2 of 4

## CCOP(=O)(OCC)C1c2cc(Cl)ccc2-c2c(Cl)cc(Cl)cc21 (stereo unspecified)
dose: 75.0 mg/kg/injection, schedule: Q01DX001 (ip), vehicle: saline
  survivor count: 0 of 6
dose: 150.0 mg/kg/injection, schedule: Q01DX001 (ip), vehicle: saline
  survivor count: 0 of 6
dose: 300.0 mg/kg/injection, schedule: Q01DX001 (ip), vehicle: saline
  survivor count: 0 of 6

## NC(N)=N/N=C/C(=N\N=C(N)N)C(F)(F)F
dose: 480.0 mg/kg/injection, schedule: Q01DX Z (ip), vehicle: saline
  survivor count: 0 of 6

## CCCCSc1n[nH]c(=O)[nH]c1=S
[1]
  survivor count: 2 of 6

## CCOP(=O)(CCN(C(C)C)C(C)C)OCC
dose: 200.0 mg/kg/injection, schedule: Q04DX003 (ip), vehicle: Klucel (hydroxypropylcellulose) (HPC)
  survivor count: 6 of 6
dose: 400.0 mg/kg/injection, schedule: Q04DX003 (ip), vehicle: Klucel (hydroxypropylcellulose) (HPC)
  survivor count: 5 of 6

## C/C=C/c1ccc2ccc[n+](C)c2c1O
[7]
  survivor count: 2 of 4
[3]
  survivor count: 0 of 4

## N#CCCN(C(=O)Nc1cccc(C(F)(F)F)c1)C1CCCCC1
dose: 200.0 mg/kg/injection, schedule: Q04DX003 (ip), vehicle: carboxymethylcellulose (CMC)
  survivor count: 3 of 3
[4]
  survivor count: 6 of 6
dose: 400.0 mg/kg/injection, schedule: Q04DX002 (ip), vehicle: carboxymethylcellulose (CMC)
  survivor count: 6 of 6
dose: 400.0 mg/kg/injection, schedule: Q04DX003 (ip), vehicle: carboxymethylcellulose (CMC)
  survivor count: 3 of 3

## CC(C)CC(CC(C)C)NCCOC(=O)c1ccc(N)cc1
dose: 300.0 mg/kg/injection, schedule: Q01DX001 (ip), vehicle: other
  survivor count: 1 of 6

## O=NN(CCCl)C(=O)Nc1ccccc1
dose: 2.0 mg/kg/injection, schedule: Q01DX Z (ip), vehicle: carboxymethylcellulose (CMC)
  T/C: 130 % of control
dose: 3.75 mg/kg/injection, schedule: Q01DX Z (ip), vehicle: carboxymethylcellulose (CMC)
  T/C: 130 % of control
dose: 4.0 mg/kg/injection, schedule: Q01DX Z (ip), vehicle: carboxymethylcellulose (CMC)
  T/C: 129 % of control
dose: 6.0 mg/kg/injection, schedule: Q01DX Z (ip), vehicle: carboxymethylcellulose (CMC)
  T/C: 146 % of control
dose: 7.5 mg/kg/injection, schedule: Q01DX Z (ip), vehicle: carboxymethylcellulose (CMC)
  T/C: 146 % of control
dose: 8.0 mg/kg/injection, schedule: Q01DX Z (ip), vehicle: carboxymethylcellulose (CMC)
  T/C: 148 % of control
dose: 9.0 mg/kg/injection, schedule: Q01DX Z (ip), vehicle: carboxymethylcellulose (CMC)
  T/C: 133 % of control
dose: 10.0 mg/kg/injection, schedule: Q01DX Z (ip), vehicle: carboxymethylcellulose (CMC)
  T/C: 137 % of control
[8]
  T/C: 142 % of control
  survivor count: 6 of 6
dose: 16.0 mg/kg/injection, schedule: Q01DX Z (ip), vehicle: carboxymethylcellulose (CMC)
  survivor count: 6 of 6
dose: 20.0 mg/kg/injection, schedule: Q01DX Z (ip), vehicle: carboxymethylcellulose (CMC)
  survivor count: 6 of 6
dose: 30.0 mg/kg/injection, schedule: Q01DX Z (ip), vehicle: carboxymethylcellulose (CMC)
  survivor count: 5 of 6
dose: 36.0 mg/kg/injection, schedule: Q01DX001 (ip), vehicle: carboxymethylcellulose (CMC)
  T/C: 133 % of control
dose: 40.0 mg/kg/injection, schedule: Q01DX Z (ip), vehicle: carboxymethylcellulose (CMC)
  survivor count: 4 of 6
dose: 50.0 mg/kg/injection, schedule: Q01DX Z (ip), vehicle: carboxymethylcellulose (CMC)
  survivor count: 1 of 6, 4 of 6, 5 of 6
dose: 75.0 mg/kg/injection, schedule: Q01DX Z (ip), vehicle: carboxymethylcellulose (CMC)
  survivor count: 0 of 6
dose: 100.0 mg/kg/injection, schedule: Q01DX Z (ip), vehicle: carboxymethylcellulose (CMC)
  survivor count: 0 of 6
dose: 144.0 mg/kg/injection, schedule: Q01DX001 (ip), vehicle: carboxymethylcellulose (CMC)
  survivor count: 0 of 10
dose: 150.0 mg/kg/injection, schedule: Q01DX Z (ip), vehicle: carboxymethylcellulose (CMC)
  survivor count: 0 of 6
dose: 200.0 mg/kg/injection, schedule: Q01DX Z (ip), vehicle: carboxymethylcellulose (CMC)
  survivor count: 0 of 6
dose: 288.0 mg/kg/injection, schedule: Q01DX001 (ip), vehicle: carboxymethylcellulose (CMC)
  survivor count: 0 of 10

## C1CN2CCN1CC2.[Cl][Ni+][Cl]
dose: 3.12 mg/kg/injection, schedule: Q04DX003 (ip), vehicle: saline
  survivor count: 6 of 6
dose: 6.25 mg/kg/injection, schedule: Q04DX003 (ip), vehicle: saline
  survivor count: 6 of 6
dose: 12.5 mg/kg/injection, schedule: Q04DX003 (ip), vehicle: saline
  survivor count: 6 of 6
dose: 25.0 mg/kg/injection, schedule: Q01DX009 (ip), vehicle: saline
  survivor count: 4 of 6
dose: 25.0 mg/kg/injection, schedule: Q04DX003 (ip), vehicle: saline
  survivor count: 6 of 6
dose: 32.0 mg/kg/injection, schedule: Q04DX003 (ip), vehicle: saline
  survivor count: 4 of 6
dose: 50.0 mg/kg/injection, schedule: Q04DX003 (ip), vehicle: saline
  survivor count: 3 of 6
[6]
  survivor count: 0 of 6
[2]
  survivor count: 0 of 6
[5]
  survivor count: 0 of 6
